Test results from patent US20030176671A1.
Results are given in words; binding and its absence hold for the method and conditions named. For part of these data: Binding seen in cells or lysates may run through a third protein. Some binding calls cover weakened binding; strength is not graded here. Where a sequence is shown, tags or fusion partners need not be part of it.

Sequences of proteins named here, by UniProt entry; tags and fusion partners are left off.
UniProt Q07812: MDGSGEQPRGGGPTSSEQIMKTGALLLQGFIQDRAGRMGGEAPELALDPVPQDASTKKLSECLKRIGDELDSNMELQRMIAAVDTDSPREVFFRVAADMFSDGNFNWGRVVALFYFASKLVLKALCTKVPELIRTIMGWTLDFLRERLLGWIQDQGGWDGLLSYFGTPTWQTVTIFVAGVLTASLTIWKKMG
UniProt P10415: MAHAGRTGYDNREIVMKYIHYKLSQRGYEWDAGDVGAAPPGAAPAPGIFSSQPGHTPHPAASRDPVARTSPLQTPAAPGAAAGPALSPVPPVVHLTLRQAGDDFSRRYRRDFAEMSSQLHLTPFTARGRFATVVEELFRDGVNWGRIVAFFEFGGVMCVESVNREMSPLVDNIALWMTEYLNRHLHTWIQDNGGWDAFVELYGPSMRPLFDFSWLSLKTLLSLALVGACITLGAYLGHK
UniProt Q07817: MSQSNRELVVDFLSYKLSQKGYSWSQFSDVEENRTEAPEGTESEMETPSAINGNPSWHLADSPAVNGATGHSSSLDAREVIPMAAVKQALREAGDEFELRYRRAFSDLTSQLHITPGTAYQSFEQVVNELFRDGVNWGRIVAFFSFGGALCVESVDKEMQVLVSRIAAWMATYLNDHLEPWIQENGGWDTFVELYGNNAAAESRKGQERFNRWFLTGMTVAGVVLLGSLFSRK

Experiments:
HA-Bax [1] = target: HA-Bax (UniProt Q07812); experiment: co-immunoprecipitation from transfected 293T cell lysates, immunoblot (FIG. 2)
GFP-Bcl-B (human) [2] = target: T1, GFP-Bcl-B (human) (UniProt Q9HD36); experiment: co-immunoprecipitation (anti-Myc or anti-Flag) and western blot, FIG. 2
T1 sequence: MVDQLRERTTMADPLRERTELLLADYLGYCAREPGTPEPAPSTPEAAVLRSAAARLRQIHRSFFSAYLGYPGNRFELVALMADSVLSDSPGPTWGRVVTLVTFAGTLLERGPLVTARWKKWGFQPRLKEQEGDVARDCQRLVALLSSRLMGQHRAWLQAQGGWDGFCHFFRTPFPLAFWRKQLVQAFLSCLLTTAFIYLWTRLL

Bax [3] = target: Bax (UniProt Q07812); experiment: anti-Myc immunoprecipitation from 293T cells, anti-Bax immunoblot (FIG. 4A)
GFP-Bcl-B (human) [4] = target: T1, GFP-Bcl-B (human); experiment: co-immunoprecipitation from transfected 293T cell lysates, immunoblot
Bcl-2 = Bcl-2 (UniProt P10415); experiment: as above
Flag-Bcl-XL = Flag-Bcl-XL (UniProt Q07817); experiment: as above
HA-Bax [5] = target: HA-Bax (UniProt Q07812); experiment: as above
Bax [6] = target: Bax (UniProt Q07812); experiment: anti-Myc immunoprecipitation from HEK293T lysates, anti-Bax immunoblot (FIG. 4A)

Measured: binding

B1: Myc-Bcl-B (protein, not shown: small tags and cut ends)
chain: MVDQLRERTTMADPLRERTELLLADYLGYCAREPGTPEPAPSTPEAAVLRSAAARLRQIHRSFFSAYLGYPGNRFELVALMADSVLSDSPGPTWGRVVTLVTFAGTLLERGPLVTARWKKWGFQPRLKEQEGDVARDCQRLVALLSSRLMGQHRAWLQAQGGWDGFCHFFRTPFPLAFWRKQLVQAFLSCLLTTAFIYLWTRLL
binds: all assays above

B2: Myc-Bcl-B FFR(169-171)AAA (protein, not shown: small tags and cut ends)
chain: MVDQLRERTTMADPLRERTELLLADYLGYCAREPGTPEPAPSTPEAAVLRSAAARLRQIHRSFFSAYLGYPGNRFELVALMADSVLSDSPGPTWGRVVTLVTFAGTLLERGPLVTARWKKWGFQPRLKEQEGDVARDCQRLVALLSSRLMGQHRAWLQAQGGWDGFCHAAATPFPLAFWRKQLVQAFLSCLLTTAFIYLWTRLL
binds: Bax [6]
